Data published in PubChem BioAssay AID2685 (National Center for Advancing Translational Sciences (NCATS), 2010).
In all, about 320,000 compounds went through this assay and about 2,100 (0.66%) were called active. The inconclusive results got no clear call from the source; some entries with a clear call stand among them for comparison. The call rests on the fitted dose curve; in most records, active means well fitted inhibition curve with a large enough effect in the signal ratio, with a control signal flat (not every such curve was filed as active); inconclusive means small, poorly fitted or top-dose-only effect, or effect the other way, or a change in a side signal; inactive means flat fitted curve, though single readings scatter; the % refers to the signal ratio. Where the call is inconclusive, the potency comes from a doubtful curve fit.

Experiment: qHTS Assay for Lipid Storage Modulators in Drosophila S3 Cells
Conditions: BODIPY lipid droplet fluorescence, 18-24 h, cells fed with added oleic acid; lipid storage change, negative = inhibition: at 46.1 µM (top of the series) unless noted
Outline: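 Drosophila S3 cells got compounds at several concentrations plus oleic acid (400 uM solution). Laser-scanning cytometry with 488 nm excitation read lipid droplets at 500-530 nm and cells at 575-640 nm. Percent activity was relative to 20 uM Triacsin C.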
On the % scale 0 is the no-effect control and ±100 the full control effect; potency means the concentration at half of the fitted maximal effect.

Row | SMILES | lipid storage change, negative = inhibition | Potency
1 | CC(C)(C)C(=O)Cn1c[n+](N)cn1 | inconclusive: -30.9% [cytotoxic] | 
2 | COc1c(/C=N/NC(=O)c2ccccc2O)c(CCN(C)C(C)=O)cc2c1OCO2 |  | inconclusive: 0.517 µM [activator, full curve]
3 | CCCCn1c(SCC(=O)O)nc2ccccc21 |  | inconclusive: 0.461 µM [activator, partial curve]
4 | Nc1nc(SCC(=O)NCc2ccco2)[nH]c(=O)c1-c1ccccc1 | inconclusive: -31.2% | 
5 | Cc1cc(N2CCOCC2)nc2ccc(NC(=O)CCC(=O)N3CCCCC3)cc12 | inconclusive: -5.25% | 
6 | COC(=O)N/N=C/c1ccc(OS(=O)(=O)c2ccc(C)cc2)c(OC)c1 |  | inconclusive: 29.1 µM [rising, partial curve, poor fit]
7 | O=C(COC(=O)c1ccco1)NCCc1ccc(Cl)cc1 | inconclusive: 12.5% | 
8 | CS(=O)(=O)N(CC(=O)NCCSCc1cccc(Cl)c1)c1ccccc1F |  | inconclusive: 9.2 µM [falling, partial curve, poor fit]
9 | CCc1ccc(OCC(O)CN2CCC(CN3C(=O)c4cccc5cccc(c45)C3=O)CC2)cc1 (stereo unspecified) |  | inconclusive: 23.1 µM [activator, partial curve]
10 | Cc1ccc(C2C(C#N)=C(N)Oc3cc(C)oc(=O)c32)o1 (stereo unspecified) |  | inconclusive: 29.1 µM [cytotoxic, single point]
11 | Cc1cc(C)n2nc(SC(C)C(=O)Nc3ccc(Cl)cn3)nc2n1 (stereo unspecified) | inconclusive: -3.74% | 
12 | O=C(Oc1cccc(Br)c1)c1cccnc1 |  | inconclusive: 29.1 µM [activator, single point]
13 | Brc1ccc(C2=CC(c3cccs3)n3ncnc3N2)cc1 (stereo unspecified) |  | inconclusive: 20.6 µM [falling, single point]
14 | COc1ccc(C2CC(c3cccs3)=NN2C(=O)CSc2nnnn2C)cc1OC (stereo unspecified) | inconclusive: 23% [at 9.22 µM] | 
15 | CC1(C)Cc2cccc(OCC(=O)NCCc3ccc(S(N)(=O)=O)cc3)c2O1 | inconclusive: 11.3% | 
16 | CCC(COC(=O)Nc1cccc(C)c1C)NC(=O)OCC(C)C (stereo unspecified) |  | inconclusive: 0.461 µM [activator, full curve, poor fit]
17 | Cc1c(C(=O)N(C)C2CCCCC2)sc2ncnc(N3CCN(c4ccccc4)CC3)c12 | inconclusive: -91.4% | 
18 | O=C(CN1CCOc2ccccc21)NC1CCN(Cc2ccccc2)CC1 |  | inconclusive: 0.116 µM [falling, full curve]
19 | COCCOCCn1c(/C=C/c2ccccc2)nc2ccccc21 | inconclusive: -21.5% [at 9.22 µM] | 
20 | Cc1cc(C)c2nc(NNC(=O)c3ccc(S(=O)(=O)N4CCCCC4)cc3)sc2c1 | inconclusive: -2.38% | 
21 | COC(=O)CN(c1ccccc1F)S(=O)(=O)c1ccc(C)cc1 | inconclusive: 19.2% | 
22 | CC(=O)Nc1ccc(S(=O)(=O)NCC(=O)NNC(=O)c2csc(N3CCOCC3)n2)cc1 | inconclusive: -14.8% | 
23 | Cc1cc(C)c(O)c(-c2cc(C(=O)Nc3ccc(S(=O)(=O)N4CCOCC4)cc3)[nH]n2)c1 | inconclusive: -14.2% | 
24 | COC(=O)c1ccc(C(c2c(N)n(CC(C)C)c(=O)[nH]c2=O)N2CCN(c3ccccc3)CC2)cc1 (stereo unspecified) | inconclusive: 31.4% | 
25 | O=C(c1ccc(Cl)nc1)N1CCN(C/C=C/c2ccccc2)CC1 | inconclusive: 25.9% | 
26 | Cc1cccc(CN2CCC(C(=O)Nc3ccc(Oc4cccnc4)cc3)CC2)c1 | inconclusive: 11.3% | 

Row | SMILES | lipid storage change, negative = inhibition | Potency
27 | O=C(COc1ccc2ccc(=O)oc2c1)NCCc1c[nH]c2ccc(F)cc12 |  | inconclusive: 6.51 µM [falling, partial curve, poor fit]
28 | O=C(Cc1ccc(S(=O)(=O)N2CCCC2)s1)N1CCN(c2ccccc2)CC1 | inconclusive: 18.4% | 
29 | CCCCC(=O)Nc1ccc(C(=O)Nc2nc(CC(=O)OCC)cs2)cc1 | inconclusive: -14.6% | 
30 | Cc1ccccc1OCc1nc(-c2ccccc2)no1 | inconclusive: 29.8% | 
31 | Cc1ccc(NC(=O)COC(=O)Cn2c(C)csc2=O)c([N+](=O)[O-])c1 | inconclusive: 42.1% | 
32 | Cc1cccc(NC(=S)N=Nc2c(O)n(CN3CCOCC3)c3ccccc23)c1C | inconclusive: -29.1% | 
33 | O=C(NCc1ccccc1)C1C2C=CC3(CN(Cc4cccnc4)C(=O)C13)O2 (stereo unspecified) | inactive | 
34 | CCCCCCNC(=O)C(=O)NCCc1ccc(Cl)cc1 | inconclusive: 34% | 
35 | Cc1cc(-n2cnnn2)cc(C)c1S(=O)(=O)N(C)c1ccccc1 |  | active: 10.3 µM
36 | CCN(C(=O)COC(=O)c1cnc(C)cn1)C1CCCCC1 | inactive | 
37 | CC(=O)Oc1c(-c2ccc(Br)o2)oc2ccccc2c1=O | inconclusive: -71.8% | 
38 | COc1ccc(Nc2nc(Cl)nc(NCc3ccco3)n2)cc1 |  | inconclusive: 0.92 µM [falling, full curve, poor fit]
39 | CC(C)Cn1c(N)c(C(=O)COC(=O)c2c(F)cccc2F)c(=O)n(C)c1=O |  | inconclusive: 0.731 µM [rising, partial curve, poor fit]
40 | CCNC(=O)CSc1nnc(-c2cccc(S(=O)(=O)N3CCOCC3)c2)o1 | inconclusive | 
41 | O=C(/C=C/c1ccccc1Cl)c1ccccc(=O)c1O | inconclusive: -8.13% | 
42 | Cc1cccc(C)c1NC(=O)NN(C(=O)c1ccccc1)C(C)(C)C |  | inconclusive: 0.291 µM [activator, partial curve, poor fit]
43 | OC(CNCCC1C=Nc2ccccc21)Cn1c2ccc(Cl)cc2c2cc(Cl)ccc21 (stereo unspecified) |  | inconclusive: 13 µM [cytotoxic, partial curve, poor fit]
44 | Fc1ccc(-c2n[nH]c(=S)n2CC2CCCO2)cc1 (stereo unspecified) |  | inconclusive: 0.731 µM [activator, partial curve]
45 | CC1=CC(C)(C)N2C(=O)C3(C(C#N)=C(N)OC4=C3C(=O)CC(C)(C)C4)c3cccc1c32 (stereo unspecified) | inconclusive: 22.1% | 
46 | COC(=O)c1cc(S(=O)(=O)NCC2CCN(Cc3cccc(F)c3)CC2)c[nH]1 | inconclusive: 27.3% | 
47 | O=C(CCS(=O)(=O)c1ccc(F)cc1)Nc1nnc(-c2cccs2)o1 | inconclusive: -37.8% | 
48 | Cc1ccc(NC(=O)C2CCN(S(=O)(=O)c3ccc4c(c3)OCCCO4)CC2)nc1 |  | inconclusive: 6.51 µM [rising, single point]
49 | CSc1ccc(/C=C/C(=O)N2CCN(c3ccccn3)CC2)cc1 |  | inconclusive: 20.6 µM [falling, single point]
50 | CCc1cc2c(C)ccc(C)c2nc1SCC(=O)Nc1c(C)[nH]c(=O)[nH]c1=O | inconclusive: 16.3% | 
51 | NS(=O)(=O)c1cccc(NC(=O)Cn2cnc3ccccc3c2=O)c1 |  | inconclusive: 25.9 µM [falling, partial curve, poor fit]
52 | O=C(Cn1nnc2ccccc2c1=O)NCC1CCC(C(=O)O)CC1 (stereo unspecified) | inconclusive: -18% | 

Row | SMILES | lipid storage change, negative = inhibition | Potency
53 | Cc1ccc(CNC(=O)Nc2ccc(OC(F)(F)F)cc2)n1C | inconclusive: 16.9% | 
54 | NC(=O)CN1CCN(C2CC(=O)N(CCc3ccccc3)C2=O)CC1 (stereo unspecified) | inactive | 
55 | O=C(Cn1cc2c(n1)CCCCC2)NCc1cccs1 | inconclusive: 12.1% | 
56 | COc1ccc(NC(=S)Nc2cnc3ccccc3c2)c(OC)c1 | inconclusive: 18.7% | 
57 | O=C(Nc1ccn(C2CC(OC(=O)c3ccccc3)C(CO)O2)c(=O)n1)c1ccccc1 (stereo unspecified) | inconclusive: -4.68% | 
58 | O=C(NCCc1ccccc1)c1cc2sccc2n1Cc1ccccc1 | inconclusive: -28.3% | 
59 | Cc1cc(-n2c(SCC(=O)NCc3cccs3)nc3n[nH]c(C)c3c2=N)ccc1Cl |  | inconclusive: 25.9 µM [falling, single point]
60 | Cc1ccc(S(=O)(=O)N2CCOCC2)cc1NC(=O)CSc1nnc(NC2CC2)s1 | inconclusive: -35.7% | 
61 | O=[N+]([O-])c1cccc(CNc2ccc3c(c2)CCC3)c1 | inconclusive: 23% | 
62 | N/C(=N\OC(=O)CSc1ccccc1)c1cccc([N+](=O)[O-])c1 |  | inconclusive: 29.1 µM [activator, single point]
63 | COc1ccc(CN2CCN(CCc3ccccc3)C(CCO)C2)c(O)c1 (stereo unspecified) | inconclusive: -2.58% | 
64 | CCN1C(=O)c2cccc3c(Cl)ccc1c23 | inactive | 
65 | O=S(=O)(Nc1ccc(-c2nc3cccnc3s2)cc1)c1ccccc1F | inconclusive: 20.2% | 
66 | O=C(Nc1ccc(Cl)cc1C(=O)Nc1ccc(Br)cn1)c1ccco1 |  | inconclusive: 6.51 µM [activator, single point]
67 | CC(=O)NC(CC(=O)NCCOc1ccccc1F)c1ccccc1 (stereo unspecified) |  | inconclusive: 29.1 µM [activator, single point]
68 | CCCN(CCC)S(=O)(=O)c1ccc(C(=O)NCc2ccc3c(c2)OCO3)cc1 | inconclusive: 32.4% | 
69 | COc1ccccc1N(CN1CCCC1=O)C(=O)c1c(F)cccc1F | inconclusive: 39% | 
70 | N#Cc1ccc(C(=O)OCc2cccc(S(=O)(=O)N3CCOCC3)c2)cc1 | inconclusive | 
71 | O=S1(=O)N=C(N2CCOCC2)c2ccccc21 | inconclusive: -1.55% | 
72 | O=C(Cc1ccccc1F)Nc1cc(Cl)ccc1N1CCCC1 | inconclusive: 1.16% | 
73 | Cc1ccc(NC(=O)CN(C)C(=O)C(C)OC(=O)CNC(=O)c2ccc(Cl)c([N+](=O)[O-])c2)cc1 (stereo unspecified) | inconclusive: -35.8% | 
74 | CCOCC(=O)Nc1nc2ccc(S(C)(=O)=O)cc2s1 | inconclusive: -23.8% | 
75 | COc1cc2nc(CN3CCC(Cc4ccccc4)CC3)[nH]c(=O)c2cc1OC | inconclusive: -50.3% | 
76 | CSc1nc(-c2ccccc2)nc(NC(=O)C(C)C)c1C(C)=O | inconclusive: 30.6% | 

In a second layout: results already given.
Row	SMILES	lipid storage change, negative = inhibition	Potency
53	Cc1ccc(CNC(=O)Nc2ccc(OC(F)(F)F)cc2)n1C	inconclusive: 16.9%	
54	NC(=O)CN1CCN(C2CC(=O)N(CCc3ccccc3)C2=O)CC1 (stereo unspecified)	inactive	
55	O=C(Cn1cc2c(n1)CCCCC2)NCc1cccs1	inconclusive: 12.1%	
56	COc1ccc(NC(=S)Nc2cnc3ccccc3c2)c(OC)c1	inconclusive: 18.7%	
